Experimental findings from PMC7794802, “The Interactome of Cancer-Related Lysyl Oxidase and Lysyl Oxidase-Like Proteins” (Cancers, 2020) are described below.

Sequences of proteins named here, by UniProt entry; tags and fusion partners are left off. Residues count along the entry.
UniProt P39060, residues 1572-1754: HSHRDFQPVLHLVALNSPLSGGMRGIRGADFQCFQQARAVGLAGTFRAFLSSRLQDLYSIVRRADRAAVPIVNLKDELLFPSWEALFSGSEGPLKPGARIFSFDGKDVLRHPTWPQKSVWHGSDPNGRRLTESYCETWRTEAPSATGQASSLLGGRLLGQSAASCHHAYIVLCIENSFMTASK
UniProt Q9UMD9, residues 489-1497: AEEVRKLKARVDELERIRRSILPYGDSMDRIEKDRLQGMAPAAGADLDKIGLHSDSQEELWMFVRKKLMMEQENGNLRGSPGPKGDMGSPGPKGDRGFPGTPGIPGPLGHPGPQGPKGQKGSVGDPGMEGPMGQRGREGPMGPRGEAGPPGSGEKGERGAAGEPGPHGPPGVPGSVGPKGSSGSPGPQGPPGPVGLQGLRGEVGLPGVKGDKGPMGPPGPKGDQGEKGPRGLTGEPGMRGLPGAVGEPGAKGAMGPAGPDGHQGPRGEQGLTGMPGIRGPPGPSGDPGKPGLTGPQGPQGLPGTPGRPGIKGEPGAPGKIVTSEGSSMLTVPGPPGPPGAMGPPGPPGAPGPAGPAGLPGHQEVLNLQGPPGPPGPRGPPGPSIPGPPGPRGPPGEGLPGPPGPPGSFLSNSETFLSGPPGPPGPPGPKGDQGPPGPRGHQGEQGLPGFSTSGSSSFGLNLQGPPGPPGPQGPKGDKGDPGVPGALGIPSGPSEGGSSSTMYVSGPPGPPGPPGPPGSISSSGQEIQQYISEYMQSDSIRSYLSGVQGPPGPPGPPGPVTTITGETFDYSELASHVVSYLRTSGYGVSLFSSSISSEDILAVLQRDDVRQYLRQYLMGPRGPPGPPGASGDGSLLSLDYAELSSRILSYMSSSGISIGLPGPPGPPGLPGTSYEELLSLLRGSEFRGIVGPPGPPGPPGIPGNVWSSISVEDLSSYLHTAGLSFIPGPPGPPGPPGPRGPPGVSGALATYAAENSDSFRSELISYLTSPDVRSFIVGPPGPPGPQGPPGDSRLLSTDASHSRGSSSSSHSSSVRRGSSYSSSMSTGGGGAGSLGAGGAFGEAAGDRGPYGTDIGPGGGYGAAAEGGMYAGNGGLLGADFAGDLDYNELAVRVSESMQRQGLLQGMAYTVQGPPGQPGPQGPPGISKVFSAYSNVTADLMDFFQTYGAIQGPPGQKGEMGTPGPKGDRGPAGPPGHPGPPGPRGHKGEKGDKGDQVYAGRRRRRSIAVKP
UniProt Q5TAT6, residues 62-717: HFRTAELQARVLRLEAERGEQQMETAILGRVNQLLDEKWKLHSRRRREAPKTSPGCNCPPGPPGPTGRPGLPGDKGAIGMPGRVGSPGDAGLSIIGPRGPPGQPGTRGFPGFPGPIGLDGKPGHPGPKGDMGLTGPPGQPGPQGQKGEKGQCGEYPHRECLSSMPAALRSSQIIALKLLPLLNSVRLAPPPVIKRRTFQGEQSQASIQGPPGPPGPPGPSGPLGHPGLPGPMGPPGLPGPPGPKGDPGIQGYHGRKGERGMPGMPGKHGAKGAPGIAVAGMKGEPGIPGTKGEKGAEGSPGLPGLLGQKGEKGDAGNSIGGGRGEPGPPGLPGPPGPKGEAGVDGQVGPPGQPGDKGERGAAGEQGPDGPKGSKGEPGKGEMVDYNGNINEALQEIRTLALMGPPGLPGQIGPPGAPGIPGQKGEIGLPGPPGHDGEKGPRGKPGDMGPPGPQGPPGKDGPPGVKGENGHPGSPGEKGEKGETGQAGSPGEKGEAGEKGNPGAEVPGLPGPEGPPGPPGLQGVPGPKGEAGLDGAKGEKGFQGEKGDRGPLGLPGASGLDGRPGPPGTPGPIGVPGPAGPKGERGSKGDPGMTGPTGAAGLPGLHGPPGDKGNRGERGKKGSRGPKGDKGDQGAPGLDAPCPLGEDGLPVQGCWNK

Test [1] has as its target lysyl oxidase-like 2 (LOXL2), full-length recombinant protein (UniProt Q9Y4K0). Nature of the test: SPR; BIAcore T100; LOXL2 covalently immobilised on a CM5 sensor chip via primary amino groups; ectodomain of human collagen XIII injected at different concentrations at 30 µL/min for 180 s; both purified.
The target in the next test is T1, SPARC (UniProt P09486 18-303).
T1 construct: SPARC; also called immobilized SPARC
T1 sequence (looked up): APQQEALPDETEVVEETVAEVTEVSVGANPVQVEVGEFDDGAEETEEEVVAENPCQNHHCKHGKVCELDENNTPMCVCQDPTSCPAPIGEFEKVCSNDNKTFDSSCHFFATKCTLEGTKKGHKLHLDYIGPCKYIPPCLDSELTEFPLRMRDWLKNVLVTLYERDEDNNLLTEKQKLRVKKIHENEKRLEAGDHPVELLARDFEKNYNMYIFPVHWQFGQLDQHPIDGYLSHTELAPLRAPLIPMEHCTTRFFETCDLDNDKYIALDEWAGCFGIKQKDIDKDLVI
Nature of the test: SPR; SPR imaging, BIAcore Flexchip; proteins spotted in triplicate (physically adsorbed) on Gold Affinity chips, blocked with buffer containing mammalian proteins; LOXL2, SRCR 1-2 and SRCR 1-4 (500 nM) recirculated over the arrays for 20 min; both purified.

In test [2] the target is T2, angiopoietin-related protein 4 (ANGPTL4) (UniProt Q9BY76).
T2 sequence: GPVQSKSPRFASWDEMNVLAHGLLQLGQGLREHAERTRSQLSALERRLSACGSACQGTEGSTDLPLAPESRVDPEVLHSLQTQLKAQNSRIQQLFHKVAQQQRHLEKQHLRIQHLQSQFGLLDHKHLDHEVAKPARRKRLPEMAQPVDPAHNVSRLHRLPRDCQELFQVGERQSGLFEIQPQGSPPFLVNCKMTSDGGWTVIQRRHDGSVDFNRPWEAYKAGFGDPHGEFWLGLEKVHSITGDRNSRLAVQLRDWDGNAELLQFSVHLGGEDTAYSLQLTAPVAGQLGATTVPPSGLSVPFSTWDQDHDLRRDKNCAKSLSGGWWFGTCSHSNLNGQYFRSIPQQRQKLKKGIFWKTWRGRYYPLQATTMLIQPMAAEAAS
The test is described as above.

The target of another test is endostatin (UniProt P39060). Described as above.
The target in test [3] is ectodomain of human collagen XVII (human) (UniProt Q9UMD9). Nature of the test: SPR; BIAcore T100; ligands covalently immobilised by amine coupling on CM5 or CM3 (collagen XVII) sensor chips; LOXL2, SRCR 1-2 and SRCR 1-4 injected in 10 mM Hepes pH 7.4, 150 mM NaCl, 0.05% P20; both purified.

Results are given in words; binding and its absence hold for the method and conditions named. Some results given as binding are weak or reduced against the parent protein; the word gives no strength.

For “ectodomain of human collagen XIII (from UniProt Q5TAT6 62-717) (domain or fragment)”, the binding entry in test [1] is “binds”.
Consider “LOXL2 N-terminal scavenger receptor cysteine-rich domains SRCR 1-4 (residues 58-544) (from UniProt Q9Y4K0 58-544) (domain or fragment)”, for which the binding entry (in the test with SPARC; in test [2]) was “binds” in each case.

B1: LOXL2 N-terminal scavenger receptor cysteine-rich domains SRCR 1-2 (residues 58-302) (domain or fragment, UniProt Q9Y4K0 58-302, looked up)
chain: LRLAGQKRKHSEGRVEVYYDGQWGTVCDDDFSIHAAHVVCRELGYVEAKSWTASSSYGKGEGPIWLDNLHCTGNEATLAACTSNGWGVTDCKHTEDVGVVCSDKRIPGFKFDNSLINQIENLNIQVEDIRIRAILSTYRKRTPVMEGYVEVKEGKTWKQICDKHWTAKNSRVVCGMFGFPGERTYNTKVYKMFASRRKQRYWPFSMDCTGTEAHISSCKLGPQVSLDPMKNVTCENGLPAVVSCV
notes: LOXL2, SRCR domains 1-2, residues 58-302; also called SRCR 1-2 domain; source: expressed as recombinant protein as previously described [62]
Take B1: the binding entry (with SPARC; in test [2]) was “binds” in each case.

B2: lysyl oxidase-like 2 (LOXL2), full-length recombinant protein (enzyme, UniProt Q9Y4K0 26-774, looked up)
chain: QYDSWPHYPEYFQQPAPEYHQPQAPANVAKIQLRLAGQKRKHSEGRVEVYYDGQWGTVCDDDFSIHAAHVVCRELGYVEAKSWTASSSYGKGEGPIWLDNLHCTGNEATLAACTSNGWGVTDCKHTEDVGVVCSDKRIPGFKFDNSLINQIENLNIQVEDIRIRAILSTYRKRTPVMEGYVEVKEGKTWKQICDKHWTAKNSRVVCGMFGFPGERTYNTKVYKMFASRRKQRYWPFSMDCTGTEAHISSCKLGPQVSLDPMKNVTCENGLPAVVSCVPGQVFSPDGPSRFRKAYKPEQPLVRLRGGAYIGEGRVEVLKNGEWGTVCDDKWDLVSASVVCRELGFGSAKEAVTGSRLGQGIGPIHLNEIQCTGNEKSIIDCKFNAESQGCNHEEDAGVRCNTPAMGLQKKLRLNGGRNPYEGRVEVLVERNGSLVWGMVCGQNWGIVEAMVVCRQLGLGFASNAFQETWYWHGDVNSNKVVMSGVKCSGTELSLAHCRHDGEDVACPQGGVQYGAGVACSETAPDLVLNAEMVQQTTYLEDRPMFMLQCAMEENCLSASAAQTDPTTGYRRLLRFSSQIHNNGQSDFRPKNGRHAWIWHDCHRHYHSMEVFTHYDLLNLNGTKVAEGHKASFCLEDTECEGDIQKNYECANFGDQGITMGCWDMYRHDIDCQWVDITDVPPGDYLFQVVINPNFEVAESDYSNNIMKCRSRYDGHRIWMYNCHIGGSFSEETEKKFEHFSGLLNNQLSPQ
notes: lysyl oxidase-like 2 (LOXL2), full-length recombinant protein made in the laboratory; As a secreted recombinant protein it probably lacks its signal peptide (surmise); also called full-length LOXL2; soluble LOXL2; source: expressed as recombinant protein as previously described [62]
For B2, the binding entry is on record as “binds” in the test with endostatin, “no binding (tested: 500 nM)” in test [2] and “binds” in test [3].
